Experimental data: PubChem BioAssay AID504804 (Drosophila RNAi Screening Center, 2011)

Screen: 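dsRNAs that improve Kc cell survival under doxorubicin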 (primary screen)
Cells: Drosophila Kc cells
Reagent: long dsRNA against Drosophila genes, 0.5 µg dsRNA per well
Timing: 96 h (48 h knock-down, then 48 h drug)
Conditions: doxorubicin 5 µg/ml for 48 h, added 48 h after dsRNA
Measured: 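Luminescent ATP counts per replicate, not normalised, reflecting viable cells after 48 h dsRNA knock-down followed by 48 h of 5 µg/ml doxorubicin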
Scale: raw ATP luminescence: higher = more viable cells, protection from doxorubicin
Rule for the call: 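Active when both duplicate wells lie at least 2 SD above the plate mean and protection is confirmed by rescreening and independent dsRNAs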
In all, the deposit lists about 19,000 reagents; shown is a random part of those that have a named target and a result. Over the whole deposit, 47 (0.25%) are marked active. 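Signals are raw, not normalised; exact z-scores behind calls not deposited; actives needed confirmation, so some wells reaching 2 SD are inactive.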 Unmarked entries are inactive.

no.	predicted target	dsRNA	raw ATP luminescence, replicate 1	raw ATP luminescence, replicate 2
1	CG12241 (GeneID 41834)	DRSC14481	70277	43233
2	CG5608 (GeneID 41543)	DRSC15841	88980	15723
3	Rhp (GeneID 32531)	DRSC20279	3.65e5	3.29e5
4	Ppat-Dpck (GeneID 38647)	DRSC09744	85323	93977
5	CG33093 (GeneID 42654)	DRSC15775	2.09e5	2.19e5
6	Sec31 (GeneID 35877)	DRSC07131	65893	52857
7	ccb (GeneID 33096)	DRSC20501	3.50e5	2.71e5
8	CG13300 (GeneID 38730)	DRSC09974	59517	74843
9	MICAL-like (GeneID 39475)	DRSC09829	39370	38463
10	lky (GeneID 33006)	DRSC20682	3.19e5	3.45e5
11	retinin (GeneID 53564)	DRSC09940	63663	55683
12	CG11594 (GeneID 38473)	DRSC08207	51810	37837
13	sinu (GeneID 46187)	DRSC09752	2.22e5	2.27e5
14	CG15211 (GeneID 32006)	DRSC19657	3.43e5	3.35e5
15	Gs1 (GeneID 33172)	DRSC00753	1.04e5	88433
16	CG17944 (GeneID 40885)	DRSC12572	64523	57987
17	alt (GeneID 42127)	DRSC15315	39787	52980
18	caup (GeneID 39440)	DRSC11334	50197	39910
19	Tb (GeneID 43212)	DRSC15815	33560	43470
20	CG10321 (GeneID 37464)	DRSC04061	1.47e5	1.61e5
21	CG4467 (GeneID 42747)	DRSC15585	52690	57220
22	CG13295 (GeneID 38692)	DRSC09969	86457	95670
23	Sk2 (GeneID 326219)	DRSC08556	44570	40050
24	CG12061 (GeneID 3354990)	DRSC20715	3.26e5	2.91e5
25	DIP2 (GeneID 252479)	DRSC08582	68750	58967
26	CG5506 (GeneID 39992)	DRSC10511	57570	42837
27	CG34284 (GeneID 5740234)	DRSC14773	39080	31220
28	CG31705 (GeneID 34577)	DRSC01991	76010	62763
29	CG17186 (GeneID 42363)	DRSC15180	70300	54030
30	CG17036 (GeneID 34679)	DRSC02564	62177	79440
31	Ndae1 (GeneID 34005)	DRSC00975	2.44e5	2.35e5
32	Ndae1 (GeneID 34005)	DRSC02770	1.20e5	77100
33	Ugt304A1 (GeneID 53501)	DRSC15127	46467	44237
34	CR11235 (GeneID 10178883)	DRSC20480	2.67e5	2.41e5
35	CG8564 (GeneID 38825)	DRSC10997	34323	34273
36	Zip71B (GeneID 39626)	DRSC09686	81540	91357
37	pdgy (GeneID 32426)	DRSC19064	2.59e5	2.59e5
38	CG18735 (GeneID 59137)	DRSC04312	67710	62903
39	CG10265 (GeneID 36676)	DRSC05986	58403	57910
40	fan (GeneID 43926)	DRSC10930	65617	80363
41	TpnC41C (GeneID 35473)	DRSC04916	55657	49120
42	CG12708 (GeneID 32502)	DRSC19490	3.78e5	3.36e5
43	CG15233 (GeneID 35556)	DRSC04967	60030	56753
44	HBS1 (GeneID 117365)	DRSC08544	99737	79970
45	CG8067 (GeneID 36552)	DRSC07065	53313	46683
46	CG10588 (GeneID 40316)	DRSC11628	63460	67343
47	Dcps (GeneID 40711)	DRSC12299	72407	26053
48	CG11147 (GeneID 33803)	DRSC02129	40220	39350
49	CG14572 (GeneID 40422)	DRSC11733	65657	75157
50	Aldh (GeneID 34256)	DRSC02717	38600	78530
51	Sec5 (GeneID 33563)	DRSC00714	1.07e5	69840
52	phtm (GeneID 32857)	DRSC20237	2.15e5	2.53e5
53	fne (GeneID 32245)	DRSC20332	3.52e5	3.20e5
54	Mtap (GeneID 36955)	DRSC06890	63767	78687
55	Obp83a (GeneID 40737)	DRSC12362	44877	51797
56	Itpr (GeneID 40664)	DRSC12354	58457	58153
57	Hnf4 (GeneID 44544)	DRSC01032	2.75e5	3.02e5
58	Hnf4 (GeneID 44544)	DRSC03344	1.33e5	1.75e5

Taken from above:
CG11147 (GeneID 33803) [DRSC02129], raw ATP luminescence, replicate 1 → 40220
Sec31 (GeneID 35877) [DRSC07131], raw ATP luminescence, replicate 2: 52857
For “raw ATP luminescence, replicate 1”, fne (GeneID 32245) [DRSC20332] has 3.52e5
Under “raw ATP luminescence, replicate 1”, Hnf4 (GeneID 44544) [DRSC03344] reads 1.33e5
For “raw ATP luminescence, replicate 1”, Itpr (GeneID 40664) [DRSC12354] has 58457
